Data as given in patent publication US20060135480A1, “Derivatives of succinic and glutaric acids and analogs thereof useful as inhibitors of phex” (Enobia Pharma, priority 2002, published 2006).
Structures were worked out from names or drawings and are uncertain.

Amino acid sequences for entries named in this document (tags omitted). Residues count along the entry.
UniProt P78562, 53-749 limits assumed: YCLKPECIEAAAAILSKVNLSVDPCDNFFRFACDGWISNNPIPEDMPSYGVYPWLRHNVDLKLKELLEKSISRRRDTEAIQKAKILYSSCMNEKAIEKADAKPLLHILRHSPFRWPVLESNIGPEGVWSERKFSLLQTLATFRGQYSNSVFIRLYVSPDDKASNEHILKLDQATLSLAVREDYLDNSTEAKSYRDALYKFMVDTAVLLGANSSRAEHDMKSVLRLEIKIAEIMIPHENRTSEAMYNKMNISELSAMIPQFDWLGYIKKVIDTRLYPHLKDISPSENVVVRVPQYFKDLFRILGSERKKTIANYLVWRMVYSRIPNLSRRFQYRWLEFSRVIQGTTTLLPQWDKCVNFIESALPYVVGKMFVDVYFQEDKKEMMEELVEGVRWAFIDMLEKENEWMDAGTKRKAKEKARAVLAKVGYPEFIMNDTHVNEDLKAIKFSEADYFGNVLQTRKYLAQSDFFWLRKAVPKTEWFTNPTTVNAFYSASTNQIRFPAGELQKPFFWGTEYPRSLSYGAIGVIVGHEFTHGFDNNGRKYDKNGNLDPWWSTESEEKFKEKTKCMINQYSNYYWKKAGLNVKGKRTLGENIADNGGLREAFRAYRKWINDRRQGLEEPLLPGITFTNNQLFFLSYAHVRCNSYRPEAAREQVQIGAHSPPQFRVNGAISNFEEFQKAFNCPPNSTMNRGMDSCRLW

Target: sPHEX (Homo sapiens, UniProt P78562)
Test: sPHEX inhibitor IC50 determination using a fluorogenic substrate (Abz-GFSDYK-Dnp, S3)
Conditions: fluorogenic substrate 20 μM, 100 ng sPHEX, pH 6.5
Protocol: The soluble form of the metallopeptidase PHEX (sPHEX) was purified to homogeneity according to the methods of Boileau and Crine (WO 00/50580). sPHEX quantity was measured with the Bradford assay (BioRad) using BSA as a standard.
sPHEX activity was determined using a fluorogenic substrate in which an increase of fluorescence was proportional to substrate conversion to products.
S3 was synthesized at Dr. Gilles Lajoie's laboratories (University of Western Ontario, Canada) by standard solid phase peptide synthesis. The fluorescent reaction product was excited at 320 nm to fluoresce at 420 nm. Fluorescence was recorded at 420 nm every five minutes over a one-hour period on a fluorescence plate reader (Perkin-Elmer, HTS-7000) to calculate the initial rate of the reaction. […] Enzymatic activity was determined by subtracting either the initial rate of substrate in buffer (solvolysis), or the typical reaction rate in which 5 mM EDTA was added prior to initiating the reaction.
sPHEX inhibitor IC50 determinations were done using the tested inhibitor at various concentrations coming from a serial dilution (usually ranging from 10^−3 M to 10^−12 M) in the reaction described above. IC50 values were calculated using the iterative four parameters non-linear regression formula from the GraphPad™ software (Prism).

## CN(C)c1ccc(-c2ccc(CCNC(=O)C(CC(=O)O)CC(=O)NO)cc2)cc1 (stereo not shown)
  IC50: 5 µM
